Laboratory results taken from article PMC3996665.
These are yes or no findings as the source states them, for the method shown. In cells and extracts the contact can be indirect. Some binding calls cover weakened binding; strength is not graded here. Sequences can lack the tags named with a protein.

Biological target: T1, Myc-CDC25C (UniProt P30307)
T1 sequence: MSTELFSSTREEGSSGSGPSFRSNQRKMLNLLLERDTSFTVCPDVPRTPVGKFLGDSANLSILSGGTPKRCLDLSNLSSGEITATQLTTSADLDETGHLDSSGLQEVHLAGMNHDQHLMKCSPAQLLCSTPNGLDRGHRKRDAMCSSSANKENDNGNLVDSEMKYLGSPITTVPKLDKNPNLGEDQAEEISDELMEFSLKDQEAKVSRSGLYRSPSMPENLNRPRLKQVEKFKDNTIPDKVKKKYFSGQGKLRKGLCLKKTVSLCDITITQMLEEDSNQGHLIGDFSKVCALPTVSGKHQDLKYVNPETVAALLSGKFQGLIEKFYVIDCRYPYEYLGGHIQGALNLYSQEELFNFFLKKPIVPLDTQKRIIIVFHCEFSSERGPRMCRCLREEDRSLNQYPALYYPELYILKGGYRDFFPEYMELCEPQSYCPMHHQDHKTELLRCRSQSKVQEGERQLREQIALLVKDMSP
Assay: co-IP; extracts of IGR-CaP1 cells transfected with Myc-CDC25C (pCMV-CDC25C), 48h after transfection; immunoprecipitated with anti-CDC25C, immunoblotted with LZTS1 antibody

B1: LZTS1 (protein, UniProt Q9Y250 1-596)
chain: MGSVSSLISGHSFHSKHCRASQYKLRKSSHLKKLNRYSDGLLRFGFSQDSGHGKSSSKMGKSEDFFYIKVSQKARGSHHPDYTALSSGDLGGQAGVDFDPSTPPKLMPFSNQLEMGSEKGAVRPTAFKPVLPRSGAILHSSPESASHQLHPAPPDKPKEQELKPGLCSGALSDSGRNSMSSLPTHSTSSSYQLDPLVTPVGPTSRFGGSAHNITQGIVLQDSNMMSLKALSFSDGGSKLGHSNKADKGPSCVRSPISTDECSIQELEQKLLEREGALQKLQRSFEEKELASSLAYEERPRRCRDELEGPEPKGGNKLKQASQKSQRAQQVLHLQVLQLQQEKRQLRQELESLMKEQDLLETKLRSYEREKTSFGPALEETQWEVCQKSGEISLLKQQLKESQTEVNAKASEILGLKAQLKDTRGKLEGLELRTQDLEGALRTKGLELEVCENELQRKKNEAELLREKVNLLEQELQELRAQAALARDMGPPTFPEDVPALQRELERLRAELREERQGHDQMSSGFQHERLVWKEEKEKVIQYQKQLQQSYVAMYQRNQRLEKALQQLARGDSAGEPLEVDLEGADIPYEDIIATEI
For B1, the binding was “binds”.
